Experimental data from patent US20240376531.
For at least one entry, the source does not settle the construct or the ends of the probe.

System: Nb.BssSI nicking endonuclease
Test: enzyme reaction in vitro
Conditions: nick initiating T7 replisome SDA; 10 mM Mg acetate, 37 C; purified recombinant protein; protein details: New England Biolabs

CACGAG (double strand) [BssSI recognition site in lambda DNA]
activity on this sequence: active
